Measured values: publication PMC12783670
No constants are given. Whether binding was seen depends on the method and setting. Binding seen in cells or lysates may run through a third protein. Some results given as binding are weak or reduced against the parent protein; the word gives no strength.

The chains behind the UniProt entries cited, without tags or fusion partners.
UniProt P23771: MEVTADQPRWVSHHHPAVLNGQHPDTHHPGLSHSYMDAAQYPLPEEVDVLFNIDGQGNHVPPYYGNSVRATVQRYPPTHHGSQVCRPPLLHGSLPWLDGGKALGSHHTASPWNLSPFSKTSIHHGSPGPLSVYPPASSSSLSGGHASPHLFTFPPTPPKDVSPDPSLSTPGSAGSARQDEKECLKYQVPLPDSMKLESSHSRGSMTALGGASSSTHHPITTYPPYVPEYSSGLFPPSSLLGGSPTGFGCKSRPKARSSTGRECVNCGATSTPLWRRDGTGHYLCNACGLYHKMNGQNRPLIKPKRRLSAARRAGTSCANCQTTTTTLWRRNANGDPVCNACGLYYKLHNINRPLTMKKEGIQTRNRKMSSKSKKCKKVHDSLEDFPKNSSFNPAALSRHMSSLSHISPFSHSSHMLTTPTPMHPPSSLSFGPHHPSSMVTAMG
UniProt P50750: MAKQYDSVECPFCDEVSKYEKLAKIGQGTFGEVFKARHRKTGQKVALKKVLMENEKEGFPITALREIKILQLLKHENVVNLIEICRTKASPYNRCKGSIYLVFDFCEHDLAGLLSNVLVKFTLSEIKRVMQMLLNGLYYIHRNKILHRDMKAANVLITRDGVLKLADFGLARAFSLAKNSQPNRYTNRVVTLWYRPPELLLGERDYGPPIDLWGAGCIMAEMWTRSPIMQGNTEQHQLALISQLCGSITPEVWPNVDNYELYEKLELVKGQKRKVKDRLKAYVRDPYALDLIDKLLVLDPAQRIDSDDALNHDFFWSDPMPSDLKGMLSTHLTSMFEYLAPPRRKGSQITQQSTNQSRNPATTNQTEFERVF

Legend:
[1] = biological target: GATA-binding protein 3 (GATA-3), endogenous (human (endogenous in H9 and MyLa CD4)) (UniProt P23771); assay: co-IP; endogenous proteins in H9 and MyLa CD4 cell lines; GATA-3 immunoprecipitation, immunoblot (Fig. 4A)
[2] = biological target: cyclin dependent kinase 9 (CDK9), endogenous (human (endogenous in H9 and MyLa CD4)) (UniProt P50750); assay: co-IP; endogenous proteins in H9 and MyLa CD4 cell lines; CDK9 immunoprecipitation, immunoblot (Fig. 4B)

binding [1] | binding [2] | Substance
binds |  | cyclin dependent kinase 9 (CDK9), endogenous (from UniProt P50750 1-372) (enzyme)
 | binds | GATA-binding protein 3 (GATA-3), endogenous (from UniProt P23771 1-443)
